# These are yes or no findings as the source states them, for the method shown. Binding seen in cells or lysates may run through a third protein. Binding calls can cover weak binding; strength is not graded here.
# B1: Exo70 (exocyst subunit) (protein, UniProt Q9VSJ8 1-693)
# chain: MNNLDSSLQAHNKLEKEATNLALLKDRVDKYHDLSTQMSSILTIFEKRLGNLEQTILPVYQETEQLQKRQQNLEATLNCLESVLSHYDVSQEVCQLIHQGPVEGNISVFLDALAKLRDANDYFRHNNSQSVELENVTSLFNTGCEGLSQHYSMLLKKHSAPLKPVELLDLIYIEDDSSDEYTSFRQLSQTTREELYTISHWLEQNLREYTNIYATERGEVVLRSLQLLKDHQKSNSWGHEALRPRHSGRQTEPKKTTSARLQQIFEKKANKLYLRATQTIEQSTGFSIKKASSHSDHLTSEDLMDGDQELDKYLVMLLGLQRLLNWERAIMIDIIPQSKHNEVFATLAYNAIDLVVKDAEAITQRILRCISRKEWTSALGIFSALKRVILLQPDIDRTYDPAQREQLKKVLKKLQHTGAKALEHFLDVVKGESSTNIVGQSNVPKDATVHELTSNTIWFIEHLYDHFDVIGSILAQDVLYSTQLDTILMKKALPVEERNKALLAIYIKKALAELNLSIMNKCEQYNDQATKHLFRLNNIHYILKSLQRSNLIDLVTLAEPECEHSYMEMIRELKASYQKTWSKMLVGIYSLDELPKPVAGKVKDKDRSVLKERFSNFNKDFEEACKIQRGISIPDVILREGIKRDNVEHILPIYNRFYEIYSGVHFSKNPDKYVKYRQHEINAMLSKLFDDSA
# modifications: S^35-labeled
# Target: GST-DysSR22-23 (Dystrophin spectrin repeats 22-23 fused to GST) (Drosophila melanogaster)
# Assay: pull-down; GST or GST-DysSR22-23 on Glutathione Sepharose 4B with in vitro translated S^35-labeled Exo70; 50mM Tris HCl, 100mM NaCl, 0.01% Triton-X100, 0.1% BSA at 20°C for 12 hours; only the target purified
binder,measurement,value
B1,binding,binds
